Laboratory results from PMC7261175, “A splice site-sensing conformational switch in U2AF2 is modulated by U2AF1 and its recurrent myelodysplasia-associated mutation” (Nucleic Acids Research, 2019).

Sequences of proteins named here, by UniProt entry; tags and fusion partners are left off. A change or cut given only in a name is not applied to a line headed by its entry.
UniProt P26368: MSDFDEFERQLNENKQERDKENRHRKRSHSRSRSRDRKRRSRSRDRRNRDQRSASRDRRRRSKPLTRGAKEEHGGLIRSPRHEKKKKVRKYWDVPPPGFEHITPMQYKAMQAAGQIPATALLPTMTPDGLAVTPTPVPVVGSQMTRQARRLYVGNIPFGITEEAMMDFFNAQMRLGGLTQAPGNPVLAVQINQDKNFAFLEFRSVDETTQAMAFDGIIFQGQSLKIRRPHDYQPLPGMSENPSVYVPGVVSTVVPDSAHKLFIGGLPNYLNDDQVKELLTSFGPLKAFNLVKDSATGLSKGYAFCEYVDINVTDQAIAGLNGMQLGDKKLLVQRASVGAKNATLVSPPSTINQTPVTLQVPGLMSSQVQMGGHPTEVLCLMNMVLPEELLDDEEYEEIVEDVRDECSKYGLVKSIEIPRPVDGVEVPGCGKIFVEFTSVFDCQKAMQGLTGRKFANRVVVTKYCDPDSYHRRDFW

Tests used:
[1] = molecular target: T1, His6SumoMBP-U2AF1 (residues 1-188, C67S, C-terminal alanine) (human) (UniProt Q01081); assay: SEC; subunits co-expressed in E. coli; sequential MBP-affinity and GST-affinity chromatography, GST cleaved (MBP cleaved too for the untagged heterodimer), then Superdex-200 in 150 mM NaCl, 25 mM HEPES pH 7.0, 20 uM ZnCl2, 3% glycerol, 0.5 mM TCEP, 0.5 mM DTT
T1 sequence: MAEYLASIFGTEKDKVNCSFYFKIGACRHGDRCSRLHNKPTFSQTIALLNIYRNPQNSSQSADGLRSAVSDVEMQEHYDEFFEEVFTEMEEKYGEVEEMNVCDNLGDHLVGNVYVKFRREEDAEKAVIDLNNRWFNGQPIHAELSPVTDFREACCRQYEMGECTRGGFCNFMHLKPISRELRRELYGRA

[2] = molecular target: untagged U2AF1 (residues 1-193, MBP cleaved) (human) (UniProt Q01081); assay: as above

Question: What does the source list for “U2AF2 (residues 85 to the C-terminus) (from UniProt P26368) (domain or fragment)”?
Answer: binding [1]: binds; binding [2]: binds

These are yes or no findings as the source states them, for the method shown. Binding can be weak; no strength is given. For some assays here: Where a sequence is shown, tags or fusion partners need not be part of it.
